The record followed here is paper PMC10617600.

Test in all cases: split reporter; BiFC with VN and VC fragments of Venus in living yeast cells (haploid; diploid for Cdc10–Cdc10; WT and axl2Δ), YFP imaging at ∼24°C
One assay concerns the target T1, Cdc11–VC (S. cerevisiae) (UniProt P32458).
T1 sequence: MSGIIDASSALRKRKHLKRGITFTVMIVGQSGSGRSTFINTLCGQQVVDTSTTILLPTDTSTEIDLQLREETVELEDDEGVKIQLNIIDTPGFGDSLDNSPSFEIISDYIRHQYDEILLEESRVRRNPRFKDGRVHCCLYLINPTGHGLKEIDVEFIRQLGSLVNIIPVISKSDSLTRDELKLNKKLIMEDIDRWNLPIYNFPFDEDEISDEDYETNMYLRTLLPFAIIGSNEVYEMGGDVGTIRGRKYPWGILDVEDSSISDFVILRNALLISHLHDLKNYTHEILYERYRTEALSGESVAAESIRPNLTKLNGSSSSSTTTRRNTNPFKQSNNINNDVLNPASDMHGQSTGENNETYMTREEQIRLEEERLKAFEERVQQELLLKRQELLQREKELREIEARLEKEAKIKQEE

The target in another assay is T2, Cdc10–VC (S. cerevisiae) (UniProt P25342).
T2 sequence: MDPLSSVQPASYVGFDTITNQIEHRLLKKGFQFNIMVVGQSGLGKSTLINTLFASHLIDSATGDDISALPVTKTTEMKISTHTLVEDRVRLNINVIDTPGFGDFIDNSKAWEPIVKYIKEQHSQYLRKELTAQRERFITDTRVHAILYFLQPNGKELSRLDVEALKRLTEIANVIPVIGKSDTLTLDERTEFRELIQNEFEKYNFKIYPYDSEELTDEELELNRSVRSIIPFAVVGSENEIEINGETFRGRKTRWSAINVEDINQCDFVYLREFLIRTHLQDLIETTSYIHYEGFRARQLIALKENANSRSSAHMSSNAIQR

For a further assay, the target named is T3, Cdc12–VC (S. cerevisiae) (UniProt P32468).
T3 sequence: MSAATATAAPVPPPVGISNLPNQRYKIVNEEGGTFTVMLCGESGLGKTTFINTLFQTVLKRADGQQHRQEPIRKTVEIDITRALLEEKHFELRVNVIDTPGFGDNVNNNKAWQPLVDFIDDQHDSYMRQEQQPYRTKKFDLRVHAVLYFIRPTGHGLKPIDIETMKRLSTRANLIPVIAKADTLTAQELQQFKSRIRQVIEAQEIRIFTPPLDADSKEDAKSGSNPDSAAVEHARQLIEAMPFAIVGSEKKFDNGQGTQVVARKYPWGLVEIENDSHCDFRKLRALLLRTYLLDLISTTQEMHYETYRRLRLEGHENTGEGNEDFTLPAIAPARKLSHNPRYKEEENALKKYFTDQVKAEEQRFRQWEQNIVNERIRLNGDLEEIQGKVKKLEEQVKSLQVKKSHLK

Assay [1] deals with T4, Cdc11ΔC–VC (S. cerevisiae) (UniProt P32458).
T4 sequence: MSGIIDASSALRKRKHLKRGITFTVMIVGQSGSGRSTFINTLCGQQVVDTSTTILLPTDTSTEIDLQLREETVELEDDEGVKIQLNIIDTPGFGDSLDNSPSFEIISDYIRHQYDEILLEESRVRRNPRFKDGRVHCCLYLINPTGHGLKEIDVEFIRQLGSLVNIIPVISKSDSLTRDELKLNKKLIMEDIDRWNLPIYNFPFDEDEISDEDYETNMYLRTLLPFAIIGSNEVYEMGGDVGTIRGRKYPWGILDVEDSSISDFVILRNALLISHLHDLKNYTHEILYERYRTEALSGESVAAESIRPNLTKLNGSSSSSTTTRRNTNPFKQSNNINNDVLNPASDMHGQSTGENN

These are yes or no findings as the source states them, for the method shown. Binding seen in cells or lysates may run through a third protein. Some results given as binding are weak or reduced against the parent protein; the word gives no strength.

B1: Axl2–VN (protein, UniProt P38928 23-823)
chain: TPYEAYPIGKQYPPVARVNESFTFQISNDTYKSSVDKTAQITYNCFDLPSWLSFDSSSRTFSGEPSSDLLSDANTTLYFNVILEGTDSADSTSLNNTYQFVVTNRPSISLSSDFNLLALLKNYGYTNGKNALKLDPNEVFNVTFDRSMFTNEESIVSYYGRSQLYNAPLPNWLFFDSGELKFTGTAPVINSAIAPETSYSFVIIATDIEGFSAVEVEFELVIGAHQLTTSIQNSLIINVTDTGNVSYDLPLNYVYLDDDPISSDKLGSINLLDAPDWVALDNATISGSVPDELLGKNSNPANFSVSIYDTYGDVIYFNFEVVSTTDLFAISSLPNINATRGEWFSYYFLPSQFTDYVNTNVSLEFTNSSQDHDWVKFQSSNLTLAGEVPKNFDKLSLGLKANQGSQSQELYFNIIGMDSKITHSNHSANATSTRSSHHSTSTSSYTSSTYTAKISSTSAAATSSAPAALPAANKTSSHNKKAVAIACGVAIPLGVILVALICFLIFWRRRRENPDDENLPHAISGPDLNNPANKPNQENATPLNNPFDDDASSYDDTSIARRLAALNTLKLDNHSATESDISSVDEKRDSLSGMNTYNDQFQSQSKEELLAKPPVQPPESPFFDPQNRSSSVYMDSEPAVNKSWRYTGNLSPVSDIVRDSYGSQKTVDTEKLFDLEAPEKEKRTSRDVTMSSLDPWNSNISPSPVRKSVTPSPYNVTKHRNRHLQNIQDSQSGKNGITPTTMSTSSSDDFVPVKDGENFCWVHSMEPDRRPSKKRLVDFSNKSNVNVGQVKDIHGRIPEML
Take B1: the binding entry with Cdc11–VC (S. cerevisiae) is on record as “no binding”; with Cdc10–VC (S. cerevisiae), “binds”; with Cdc12–VC (S. cerevisiae), “no binding”; in assay [1] it was “no binding”.
